These are yes or no findings as the source states them, for the method shown. Binding seen in cells or lysates may run through a third protein. Some entries that bind do so weakly or less than the wild type. Sequences can lack the tags named with a protein.
What was measured:
Assay in all cases: co-IP
GFP-WASH1 = biological target: T1, GFP-WASH1 (UniProt A8K0Z3)
T1 sequence: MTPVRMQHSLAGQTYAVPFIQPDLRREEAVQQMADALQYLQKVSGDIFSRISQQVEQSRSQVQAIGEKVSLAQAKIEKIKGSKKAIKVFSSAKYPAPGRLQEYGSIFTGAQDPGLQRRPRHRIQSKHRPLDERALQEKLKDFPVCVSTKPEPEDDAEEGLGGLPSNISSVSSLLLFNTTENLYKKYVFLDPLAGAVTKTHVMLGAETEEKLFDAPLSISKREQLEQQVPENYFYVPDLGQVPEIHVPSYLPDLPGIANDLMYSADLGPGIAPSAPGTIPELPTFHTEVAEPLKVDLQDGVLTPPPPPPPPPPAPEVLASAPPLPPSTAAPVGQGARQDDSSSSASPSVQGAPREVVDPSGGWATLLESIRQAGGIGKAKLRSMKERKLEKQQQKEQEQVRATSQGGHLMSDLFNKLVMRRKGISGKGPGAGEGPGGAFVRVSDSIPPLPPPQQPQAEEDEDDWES

By UniProt entry, the sequences of proteins in these tests, tags left out.
UniProt Q9BVG3: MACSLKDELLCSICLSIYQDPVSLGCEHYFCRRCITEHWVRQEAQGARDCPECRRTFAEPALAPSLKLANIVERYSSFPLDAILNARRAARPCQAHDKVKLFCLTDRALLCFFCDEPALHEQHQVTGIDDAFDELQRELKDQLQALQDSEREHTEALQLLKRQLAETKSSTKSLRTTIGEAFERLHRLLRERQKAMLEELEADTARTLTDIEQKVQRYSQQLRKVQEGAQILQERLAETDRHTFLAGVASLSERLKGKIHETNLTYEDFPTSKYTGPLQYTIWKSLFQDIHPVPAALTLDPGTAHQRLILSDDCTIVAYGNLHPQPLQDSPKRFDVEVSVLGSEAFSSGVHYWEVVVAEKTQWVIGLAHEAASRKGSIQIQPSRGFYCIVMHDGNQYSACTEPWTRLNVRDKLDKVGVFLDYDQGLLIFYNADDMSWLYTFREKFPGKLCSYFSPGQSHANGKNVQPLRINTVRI

GFP-tagged CCDC53 = biological target: T2, GFP-tagged CCDC53 (UniProt Q9Y3C0)
T2 sequence: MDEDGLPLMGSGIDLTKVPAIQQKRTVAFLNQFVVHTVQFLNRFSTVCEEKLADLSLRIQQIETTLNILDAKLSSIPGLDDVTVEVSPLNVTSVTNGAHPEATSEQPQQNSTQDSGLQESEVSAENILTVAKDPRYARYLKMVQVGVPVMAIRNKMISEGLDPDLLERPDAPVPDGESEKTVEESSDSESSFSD

GFP-tagged SWIP = biological target: T3, GFP-tagged SWIP (UniProt Q2M389)
T3 sequence: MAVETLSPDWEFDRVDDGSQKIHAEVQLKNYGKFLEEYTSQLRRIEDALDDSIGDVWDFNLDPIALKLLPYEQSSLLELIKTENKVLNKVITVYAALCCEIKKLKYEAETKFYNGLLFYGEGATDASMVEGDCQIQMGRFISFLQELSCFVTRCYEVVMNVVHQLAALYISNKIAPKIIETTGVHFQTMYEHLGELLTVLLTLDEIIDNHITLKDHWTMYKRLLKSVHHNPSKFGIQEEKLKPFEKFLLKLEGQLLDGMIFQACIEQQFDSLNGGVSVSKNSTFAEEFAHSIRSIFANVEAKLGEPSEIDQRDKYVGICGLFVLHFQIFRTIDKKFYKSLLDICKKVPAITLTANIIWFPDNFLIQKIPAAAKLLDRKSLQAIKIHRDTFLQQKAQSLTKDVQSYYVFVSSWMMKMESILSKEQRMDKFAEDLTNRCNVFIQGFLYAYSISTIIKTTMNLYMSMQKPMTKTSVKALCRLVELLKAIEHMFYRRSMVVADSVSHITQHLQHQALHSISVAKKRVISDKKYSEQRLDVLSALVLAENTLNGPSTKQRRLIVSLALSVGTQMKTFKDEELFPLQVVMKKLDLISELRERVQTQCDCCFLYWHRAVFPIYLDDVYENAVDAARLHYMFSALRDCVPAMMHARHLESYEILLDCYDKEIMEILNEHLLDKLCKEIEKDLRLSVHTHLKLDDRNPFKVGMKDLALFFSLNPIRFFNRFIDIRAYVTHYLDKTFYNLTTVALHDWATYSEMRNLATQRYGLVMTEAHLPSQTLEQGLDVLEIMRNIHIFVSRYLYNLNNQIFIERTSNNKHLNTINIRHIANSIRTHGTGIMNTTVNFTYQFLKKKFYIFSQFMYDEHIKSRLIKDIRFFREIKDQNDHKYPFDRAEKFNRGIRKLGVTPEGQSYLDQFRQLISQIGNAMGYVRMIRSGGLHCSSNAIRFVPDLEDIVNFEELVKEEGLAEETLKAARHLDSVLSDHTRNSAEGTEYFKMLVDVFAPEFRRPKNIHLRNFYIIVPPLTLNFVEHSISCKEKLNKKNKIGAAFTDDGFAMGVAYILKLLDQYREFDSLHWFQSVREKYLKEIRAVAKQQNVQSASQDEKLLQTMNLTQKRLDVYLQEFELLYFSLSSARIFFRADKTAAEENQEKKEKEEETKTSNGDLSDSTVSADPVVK

GFP-tagged Strumpellin = biological target: T4, GFP-tagged Strumpellin (UniProt Q12768)
T4 sequence: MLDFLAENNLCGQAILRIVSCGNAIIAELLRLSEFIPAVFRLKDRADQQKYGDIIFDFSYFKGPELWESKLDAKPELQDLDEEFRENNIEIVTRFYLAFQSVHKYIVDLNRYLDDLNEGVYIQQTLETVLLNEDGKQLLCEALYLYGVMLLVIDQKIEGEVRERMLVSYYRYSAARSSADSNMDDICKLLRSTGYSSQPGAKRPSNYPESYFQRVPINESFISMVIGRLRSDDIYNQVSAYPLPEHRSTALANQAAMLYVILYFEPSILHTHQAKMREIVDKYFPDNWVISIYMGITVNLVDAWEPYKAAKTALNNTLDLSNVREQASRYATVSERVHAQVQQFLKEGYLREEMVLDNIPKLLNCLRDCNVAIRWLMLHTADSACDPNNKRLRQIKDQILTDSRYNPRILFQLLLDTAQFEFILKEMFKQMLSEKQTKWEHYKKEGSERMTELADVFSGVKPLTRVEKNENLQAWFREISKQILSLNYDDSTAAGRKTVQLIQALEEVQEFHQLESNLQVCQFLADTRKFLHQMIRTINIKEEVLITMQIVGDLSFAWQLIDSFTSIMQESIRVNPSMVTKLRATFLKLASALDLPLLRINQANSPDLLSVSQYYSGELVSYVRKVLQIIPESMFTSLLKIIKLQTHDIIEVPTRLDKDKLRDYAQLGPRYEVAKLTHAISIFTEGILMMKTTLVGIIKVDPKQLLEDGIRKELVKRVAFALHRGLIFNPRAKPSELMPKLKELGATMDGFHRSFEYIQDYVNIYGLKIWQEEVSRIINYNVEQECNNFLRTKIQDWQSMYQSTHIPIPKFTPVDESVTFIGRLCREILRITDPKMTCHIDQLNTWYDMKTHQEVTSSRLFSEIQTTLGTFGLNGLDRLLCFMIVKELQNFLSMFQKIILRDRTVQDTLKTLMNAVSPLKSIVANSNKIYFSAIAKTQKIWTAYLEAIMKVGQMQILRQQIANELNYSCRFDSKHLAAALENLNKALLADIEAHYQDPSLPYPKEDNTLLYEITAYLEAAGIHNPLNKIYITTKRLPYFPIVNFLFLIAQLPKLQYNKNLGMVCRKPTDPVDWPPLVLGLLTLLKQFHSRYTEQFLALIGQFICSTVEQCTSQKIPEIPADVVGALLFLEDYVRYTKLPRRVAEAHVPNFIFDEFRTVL

Measured: binding

TRIM62-Myc (from UniProt Q9BVG3 1-475)
binds: GFP-WASH1 | GFP-tagged CCDC53 | GFP-tagged SWIP | GFP-tagged Strumpellin
